Measurements reported in PubChem BioAssay AID602196 (INSERM, 2012).

- Test: 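Genes whose knock-down alters cisplatin killing of lung cancer cells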
- System: human A549 lung cancer cells
- Knock-down reagent: siRNA pair against human genes
- Duration: 48 h transfection before cisplatin; time from cisplatin to read-out not stated
- Challenge: cisplatin at a dose killing half of control-siRNA cells; exact dose and duration not given
- Read-out: 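Cisplatin cell death as a shift from the 50% death seen with control siRNA; siRNAs toxic or growth-blocking alone scored 0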
- Scale: two-siRNA summed score (-2 to +2): higher = both siRNAs protect from cisplatin killing; -2 means both sensitise; mean protection from cisplatin (shift in death): higher = protection from cisplatin killing
- Rule for the call: 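siRNAs harmful alone (LDH or WST-1) get 0; others get +1 for less and -1 for more cisplatin killing; genes are active when the two siRNAs give the same sign, summing to ±2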
- Meaning of the calls: active = both siRNAs shift cisplatin killing the same way; inactive = no consistent shift, or siRNA harmful alone
This is a random part of about 23,000 reagents tested. Of all reagents, 455 (2%) got an active call. 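Active includes both protection and sensitisation; some change values fall well beyond the stated -50 to +50 range.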 A number with no mark means an inactive call. Further read-outs or replicates are left out here. Not given: the amount of reagent.

After knock-down of KISS1 (KiSS-1 metastasis suppressor), the screen gave two-siRNA summed score (-2 to +2) = 0; mean protection from cisplatin (shift in death) (%) = 8.4.
TBCC (tubulin folding cofactor C) scored two-siRNA summed score (-2 to +2) = 0; mean protection from cisplatin (shift in death) (%) = 9.7.
B4GALT6 (beta-1,4-galactosyltransferase 6) scored two-siRNA summed score (-2 to +2) = 1; mean protection from cisplatin (shift in death) (%) = 5.2.
With knock-down of ALKBH8 (alkB homolog 8, tRNA methyltransferase), the record shows two-siRNA summed score (-2 to +2) = 0; mean protection from cisplatin (shift in death) (%) = 7.2.
Silencing of WDR36 (WD repeat domain 36) came out at: two-siRNA summed score (-2 to +2) = 1; mean protection from cisplatin (shift in death) (%) = 5.3.
STRN3 (striatin 3) showed two-siRNA summed score (-2 to +2) = 0; mean protection from cisplatin (shift in death) (%) = 6.4.
For RPRM (reprimo, TP53 dependent G2 arrest mediator homolog), the entry reads two-siRNA summed score (-2 to +2) = -1; mean protection from cisplatin (shift in death) (%) = -3.5.
Against LRRC7 (leucine rich repeat containing 7), the entry reads two-siRNA summed score (-2 to +2) = 0; mean protection from cisplatin (shift in death) (%) = 6.2.
After knock-down of CDR2-DT (CDR2 divergent transcript), the record shows two-siRNA summed score (-2 to +2) = 1; mean protection from cisplatin (shift in death) (%) = 10.7.
Against CHIA (chitinase acidic), the entry reads two-siRNA summed score (-2 to +2) = 0; mean protection from cisplatin (shift in death) (%) = 3.1.
Against PEX19 (peroxisomal biogenesis factor 19), the values are two-siRNA summed score (-2 to +2) = 0; mean protection from cisplatin (shift in death) (%) = -2.7.
Knock-down of CA8 (carbonic anhydrase 8 (inactive)) gave: two-siRNA summed score (-2 to +2) = -1; mean protection from cisplatin (shift in death) (%) = -7.6.
LOC387943 showed two-siRNA summed score (-2 to +2) = 0; mean protection from cisplatin (shift in death) (%) = -8.2.
For POMT1 (protein O-mannosyltransferase 1), the entry reads two-siRNA summed score (-2 to +2) = 0; mean protection from cisplatin (shift in death) (%) = 5.5.
Silencing of LINC00922 (long independently transcribed non-coding RNA 922) gave: two-siRNA summed score (-2 to +2) = 0; mean protection from cisplatin (shift in death) (%) = 20.2.
SLC35F4 showed two-siRNA summed score (-2 to +2) = 0; mean protection from cisplatin (shift in death) (%) = 1.9.
For SYTL5 (synaptotagmin like 5), the values are two-siRNA summed score (-2 to +2) = 0; mean protection from cisplatin (shift in death) (%) = -16.8.
Silencing of PFDN5 (prefoldin subunit 5) came out at: two-siRNA summed score (-2 to +2) = 0; mean protection from cisplatin (shift in death) (%) = -12.6.
After knock-down of KRAS (KRas proto-oncogene, GTPase) the results were two-siRNA summed score (-2 to +2) = -1; mean protection from cisplatin (shift in death) (%) = -8.6.
After knock-down of SOX8 (SRY-box transcription factor 8), the screen gave two-siRNA summed score (-2 to +2) = 1; mean protection from cisplatin (shift in death) (%) = 9.9.
Silencing of BRD4 (bromodomain containing 4) gave: two-siRNA summed score (-2 to +2) = 0; mean protection from cisplatin (shift in death) (%) = 7.9.

2 of these entries in another layout:
| gene knocked down | two-siRNA summed score (-2 to +2) | mean protection from cisplatin (shift in death) (%) |
| --- | --- | --- |
| TBCC (tubulin folding cofactor C) | 0 | 9.7 |
| B4GALT6 (beta-1,4-galactosyltransferase 6) | 1 | 5.2 |
